# Results taken from the supplement of paper PMC11348887.
# Where a name gives a salt, the structure may show the parent alone. The list shows a part of the results. Most values lie at the level of the controls, where differences are scatter.
# Test system: hPSC-derived cortical neurons (WA09)
# Experiment: total neurite length per nucleus (MAP2) z-score; higher = more neurite growth
# Conditions: 5 µM; treatment: days 7-14 after plating, readout day 21
row,Compound,total neurite length per nucleus (z-score)
1,CCNC(=O)c1noc(-c2cc(C(C)C)c(O)cc2O)c1-c1ccc(CN2CCOCC2)cc1,-2.17
2,CC(C)C[C@H](NP(=O)(O)O[C@@H]1O[C@@H](C)[C@H](O)[C@@H](O)[C@H]1O)C(=O)N[C@@H](Cc1c[nH]c2ccccc12)C(=O)O [Phosphoramidon Disodium Salt],0.097
3,OC[C@@H](O)[C@@H](O)CO [Erythritol],-0.254
4,CN(Cc1ccc(C(C)(C)C)cc1)Cc1cccc2ccccc12 [Butenafine HCl],0.489
5,COC(=O)Nc1nc2cc(C(=O)c3ccccc3)ccc2[nH]1 [Mebendazole],-0.756
6,CN1CCN(CCOc2cc(OC3CCOCC3)c3c(Nc4c(Cl)ccc5c4OCO5)ncnc3c2)CC1 [Saracatinib (AZD0530)],0.316
7,CN(N=O)C(=O)NC1C(O)OC(CO)C(O)C1O (centres undefined) [Streptozotocin (STZ)],0.519
8,C[C@]12CCC(=O)C=C1CC[C@@H]1[C@@H]2[C@@H](O)C[C@@]2(C)[C@H]1CC[C@]2(O)C(=O)CO [Hydrocortisone],0.666
9,CC[C@H]1OC(=O)[C@H](C)[C@@H](O[C@H]2C[C@@](C)(OC)[C@@H](O)[C@H](C)O2)[C@H](C)[C@@H](O[C@@H]2O[C@H](C)C[C@H](N(C)C)[C@H]2O)[C@](C)(O)C[C@@H](C)C(=O)[C@H](C)[C@H]2OC(=O)O[C@@]21C [Erythromycin Cyclocarbonate],0.625
10,CCC(=O)OCC(=O)[C@@]1(OC(=O)CC)[C@@H](C)C[C@H]2[C@@H]3CCC4=CC(=O)C=C[C@]4(C)[C@@]3(F)[C@@H](O)C[C@@]21C [Betamethasone Dipropionate],-0.537
11,CC(=O)O[C@H]1C(=O)[C@@]2(C)[C@H]([C@H](OC(=O)c3ccccc3)[C@]3(O)C[C@H](OC(=O)[C@H](O)[C@@H](NC(=O)c4ccccc4)c4ccccc4)C(C)=C1C3(C)C)[C@]1(OC(C)=O)CO[C@@H]1C[C@@H]2O [Paclitaxel],5.16
12,CCCCN(Cc1ccc(C(=O)NO)cc1)C(=O)Nc1ccccc1 [Nexturastat A],-0.162
13,Cc1ccc(NC(=O)c2ccc(CN3CCN(C)CC3)cc2)cc1Nc1nccc(-c2cccnc2)n1 [Imatinib (STI571)],-1.48
14,CNCc1ccc(-c2cc(-c3nc(-c4ccc(S(=O)(=O)C(C)C)cc4)cnc3N)on2)cc1,-4.35
15,O=C(O)CNC(=O)c1nc(Cl)c2ccccc2c1O,1.02
16,CCCCCCCCCCCCCCCCCCOP(=O)([O-])OC1CC[N+](C)(C)CC1 [Perifosine (KRX-0401)],-0.0372
17,C[C@H]1O[C@H](O[C@H]2[C@H](O)[C@@H](O)[C@@H](O[C@H]3[C@H](O)[C@@H](O)C(O)O[C@@H]3CO)O[C@@H]2CO)[C@H](O)[C@@H](O)[C@@H]1N[C@H]1C=C(CO)[C@@H](O)[C@H](O)[C@H]1O (some centres undefined) [Acarbose],-0.432
18,Cc1cc(OCCCS(C)(=O)=O)cc(C)c1-c1cccc(COc2ccc3c(c2)OC[C@H]3CC(=O)O)c1,-0.163
19,CCOC(=O)[C@H](CCc1ccccc1)N[C@@H](C)C(=O)N1C(=O)N(C)C[C@H]1C(=O)O [Imidapril HCl],2.13
20,CCCC(=O)Nc1ccc(OCC(O)CNC(C)C)c(C(C)=O)c1 (centres undefined) [Acebutolol HCl],1.73
21,CN1C(C(=O)Nc2ccccn2)=C(O)c2ccccc2S1(=O)=O [Piroxicam],-0.481
22,Cc1ccc(C(=O)c2ccc(CC(=O)O)n2C)cc1 [Tolmetin Sodium],0.938
23,C[C@@H]1[C@H](O)[C@@H](C)/C=C/C=C/C=C/C=C/C=C/C=C/C=C/[C@H](O[C@@H]2O[C@H](C)[C@@H](O)[C@H](N)[C@@H]2O)C[C@@H]2O[C@](O)(C[C@@H](O)C[C@@H](O)[C@H](O)CC[C@@H](O)C[C@@H](O)CC(=O)O[C@H]1C)C[C@H](O)[C@H]2C(=O)O [Amphotericin B],0.396
24,[I-].[K+] [Potassium Iodide],0.000459
25,CN(CCOc1ccc(CC2SC(=O)NC2=O)cc1)c1ccccn1 (centres undefined) [Rosiglitazone],0.285
26,CCn1c(-c2nonc2N)nc2c(C#CC(C)(C)O)ncc(OC[C@H]3CCCNC3)c21,-1.48
27,O=C(O)/C=C/c1ccc(Cn2ccnc2)cc1 [Ozagrel HCl],-0.233
28,NC(CO)(CO)CO [Trometamol],0.166
29,Nc1ccc(S(=O)(=O)Nc2ncccn2)cc1 [Sulfadiazine],-0.07

# 3 compounds already listed, arranged by count of non-hydrogen atoms, smallest number first:
row,Compound,total neurite length per nucleus (z-score)
25,CN(CCOc1ccc(CC2SC(=O)NC2=O)cc1)c1ccccn1 (centres undefined) [Rosiglitazone],0.285
17,C[C@H]1O[C@H](O[C@H]2[C@H](O)[C@@H](O)[C@@H](O[C@H]3[C@H](O)[C@@H](O)C(O)O[C@@H]3CO)O[C@@H]2CO)[C@H](O)[C@@H](O)[C@@H]1N[C@H]1C=C(CO)[C@@H](O)[C@H](O)[C@H]1O (some centres undefined) [Acarbose],-0.432
11,CC(=O)O[C@H]1C(=O)[C@@]2(C)[C@H]([C@H](OC(=O)c3ccccc3)[C@]3(O)C[C@H](OC(=O)[C@H](O)[C@@H](NC(=O)c4ccccc4)c4ccccc4)C(C)=C1C3(C)C)[C@]1(OC(C)=O)CO[C@@H]1C[C@@H]2O [Paclitaxel],5.16
